PubChem BioAssay AID1259308, NCATS | 2017
Test: 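Genes whose loss raises luciferase production in HEK293 cells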 (primary screen). System: human HEK293 embryonic kidney cells stably expressing firefly luciferase (HEK-CMV-Luc2-Hygro). Reagents: single siRNA against human genes, 0.8 pmol siRNA per well. Duration: 72 h. Measured: 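Luciferase light (ONE-Glo) measured on one replicate plate set and viability (CellTiter-Glo) on the other, scaled to a negative control siRNA, with robust z-scores and luciferase per cell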. Direction: total luciferase, z-score and total luciferase, % of control: higher = more reporter protein produced; luciferase per cell, z-score: higher = more reporter output per viable cell; viable cells, % of control: higher = more viable cells. Call rule: 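Active when the median/MAD z-score for overall luciferase is greater than 3; a gene was taken forward for validation with new siRNAs if at least two of its three siRNAs passed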. Meaning of the calls: active = raised luciferase; inactive = no rise.
Shown is an unselected part of about 59,000 reagents. About 1,510 of them (2.6%) were called active. 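Calls use total luciferase alone and ignore viability, so some active siRNAs may act by altering cell number.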 The numbers tell different reagents against one gene apart. No sequences are given here.

target gene	reagent no.	total luciferase, z-score	total luciferase, % of control	luciferase per cell, z-score	viable cells, % of control	Call
FUT2 (fucosyltransferase 2 (H blood group))	1	1.71	116	1.19	94.7	inactive
FUT2 (fucosyltransferase 2 (H blood group))	2	0.897	99.7	0.122	108	inactive
FUT2 (fucosyltransferase 2 (H blood group))	3	-0.55	71	-0.68	94.8	inactive
DLX3 (distal-less homeobox 3)	1	-0.0903	80.1	0.0829	87.6	inactive
DLX3 (distal-less homeobox 3)	2	-0.766	66.7	-1.62	114	inactive
DLX3 (distal-less homeobox 3)	3	0.574	93.3	0.171	99.7	inactive
SACK1D (scaffolding CK1 anchoring protein D)	1	-0.507	71.8	-0.197	84.5	inactive
SACK1D (scaffolding CK1 anchoring protein D)	2	-0.872	64.5	-0.654	85.7	inactive
SACK1D (scaffolding CK1 anchoring protein D)	3	-1.26	56.9	-0.61	74.7	inactive
TECPR1 (tectonin beta-propeller repeat containing 1)	1	0.263	87.1	0.239	91.4	inactive
TECPR1 (tectonin beta-propeller repeat containing 1)	2	-0.321	75.5	-0.645	100	inactive
TECPR1 (tectonin beta-propeller repeat containing 1)	3	0.00699	82	-0.0193	92.1	inactive
SLC25A24	1	0.351	88.9	0.141	95.7	inactive
SLC25A24	2	-0.199	77.9	0.191	82.8	inactive
SLC25A24	3	1.07	103	0.956	89.7	inactive
FAM163A (family with sequence similarity 163 member A)	1	1.2	106	1.47	80.1	inactive
FAM163A (family with sequence similarity 163 member A)	2	1.79	118	0.954	102	inactive
FAM163A (family with sequence similarity 163 member A)	3	-0.202	77.9	-0.233	92.5	inactive
ITCH (itchy E3 ubiquitin protein ligase)	1	-0.771	66.6	-0.59	86.9	inactive
ITCH (itchy E3 ubiquitin protein ligase)	2	0.376	89.4	0.299	92.3	inactive
ITCH (itchy E3 ubiquitin protein ligase)	3	-1.25	56.9	-1.9	105	inactive
SI (sucrase-isomaltase)	1	0.361	89.1	-0.3	108	inactive
SI (sucrase-isomaltase)	2	1.04	102	0.186	109	inactive
SI (sucrase-isomaltase)	3	-0.0378	81.1	-0.467	103	inactive

Laid out differently: results already given
target gene | reagent no. | total luciferase, z-score | total luciferase, % of control | luciferase per cell, z-score | viable cells, % of control | Call
TECPR1 (tectonin beta-propeller repeat containing 1) | 3 | 0.00699 | 82 | -0.0193 | 92.1 | inactive
SLC25A24 | 1 | 0.351 | 88.9 | 0.141 | 95.7 | inactive
SLC25A24 | 2 | -0.199 | 77.9 | 0.191 | 82.8 | inactive
SLC25A24 | 3 | 1.07 | 103 | 0.956 | 89.7 | inactive
FAM163A (family with sequence similarity 163 member A) | 1 | 1.2 | 106 | 1.47 | 80.1 | inactive
FAM163A (family with sequence similarity 163 member A) | 2 | 1.79 | 118 | 0.954 | 102 | inactive
FAM163A (family with sequence similarity 163 member A) | 3 | -0.202 | 77.9 | -0.233 | 92.5 | inactive
ITCH (itchy E3 ubiquitin protein ligase) | 1 | -0.771 | 66.6 | -0.59 | 86.9 | inactive
ITCH (itchy E3 ubiquitin protein ligase) | 2 | 0.376 | 89.4 | 0.299 | 92.3 | inactive

The list goes on:
target gene	reagent no.	total luciferase, z-score	total luciferase, % of control	luciferase per cell, z-score	viable cells, % of control	Call
HOXD10 (homeobox D10)	1	0.0507	82.9	-0.4	103	inactive
HOXD10 (homeobox D10)	2	1.22	106	0.914	93.2	inactive
HOXD10 (homeobox D10)	3	0.00208	81.9	-0.119	94.5	inactive
HSD11B1 (hydroxysteroid 11-beta dehydrogenase 1)	1	0.544	92.7	0.36	94.2	inactive
HSD11B1 (hydroxysteroid 11-beta dehydrogenase 1)	2	0.389	89.6	0.73	82.6	inactive
HSD11B1 (hydroxysteroid 11-beta dehydrogenase 1)	3	1.43	110	1.81	76.5	inactive
SAMD12 (sterile alpha motif domain containing 12)	1	-0.193	78.1	-0.286	94	inactive
SAMD12 (sterile alpha motif domain containing 12)	2	-1.33	55.4	-0.812	76.7	inactive
SAMD12 (sterile alpha motif domain containing 12)	3	2.87	139	1.89	94.5	inactive
BRS3 (bombesin receptor subtype 3)	1	0.154	85	-0.0411	96	inactive
BRS3 (bombesin receptor subtype 3)	2	-0.571	70.5	-0.568	91.5	inactive
BRS3 (bombesin receptor subtype 3)	3	-1.21	57.8	-1.37	92.8	inactive
OR51T1 (olfactory receptor family 51 subfamily T member 1)	1	-1.18	58.4	-0.64	77.2	inactive
OR51T1 (olfactory receptor family 51 subfamily T member 1)	2	-3.12	19.7	-1.72	34.7	inactive
OR51T1 (olfactory receptor family 51 subfamily T member 1)	3	0.967	101	0.355	103	inactive
MALL (mal, T cell differentiation protein like)	1	-0.266	76.6	-0.223	90.8	inactive
MALL (mal, T cell differentiation protein like)	2	0.0791	83.5	-0.51	107	inactive
MALL (mal, T cell differentiation protein like)	3	-1.13	59.4	-0.314	72.1	inactive
RHPN2 (rhophilin Rho GTPase binding protein 2)	1	-0.45	72.9	-1.32	115	inactive
RHPN2 (rhophilin Rho GTPase binding protein 2)	2	-0.959	62.8	-1.16	95.2	inactive
RHPN2 (rhophilin Rho GTPase binding protein 2)	3	0.64	94.6	0.397	95.2	inactive
SLC23A2	1	1.32	108	1.26	86.8	inactive
SLC23A2	2	0.555	92.9	0.0848	102	inactive
SLC23A2	3	-0.185	78.2	0.149	84	inactive
POP7 (POP7 ribonuclease P/MRP subunit)	1	-0.392	74.1	-0.338	90.5	inactive
POP7 (POP7 ribonuclease P/MRP subunit)	2	-0.497	72	-0.687	96.4	inactive
POP7 (POP7 ribonuclease P/MRP subunit)	3	1.38	109	1.72	77.7	inactive
RIOK3 (RIO kinase 3)	1	0.404	89.9	0.329	92.2	inactive
RIOK3 (RIO kinase 3)	2	-0.825	65.5	-1.17	99.5	inactive
RIOK3 (RIO kinase 3)	3	-1	61.9	-1.28	97	inactive
BLTP3A (bridge-like lipid transfer protein family member 3A)	1	0.0654	83.2	-0.312	101	inactive
BLTP3A (bridge-like lipid transfer protein family member 3A)	2	0.122	84.3	-0.249	101	inactive
BLTP3A (bridge-like lipid transfer protein family member 3A)	3	0.0768	83.4	-0.601	109	inactive
